Experimental findings from paper PMC12385072 are described below.

No constants are given. Whether binding was seen depends on the method and setting. Some results given as binding are weak or reduced against the parent protein; the word gives no strength.

This assay deals with T1, RIPSYR peptide (TARPγ2-derived, 225-RIPSYR-230).
T1 sequence (peptide): RIPSYR
Kind of assay: pull-down; RIPSYR covalently coupled (EDC/NHS) to carboxy magnetic beads, uncoupled beads as control; recombinant Arc N-lobe added, 2 h at 4 °C; washed with 50 mM Tris Cl, 300 mM NaCl, pH 7.4; eluted with 2% SDS; detected by Western blot; both purified. (Immunoblotting shows a protein as a band on a membrane.)

B1: Arc N-lobe domain (208-278), recombinant (domain or fragment, UniProt Q63053 208-278)
chain: GVDTQIFEDPREFLSHLEEYLRQVGGSEEYWLSQIQNHMNGPAKKWWEFKQGSVKNWVEFKKEFLQYSEGT
For the molecule B1, the binding result is “binds”.
